The target in the assay is DsRed-tagged E-cadherin cytoplasmic domain (DECT) (UniProt P09803). Description: co-IP; FLAG-tagged DsRed constructs immunoprecipitated with anti-FLAG from stably transfected C2C12 cells; precipitates immunoblotted with anti-β-catenin or anti-plakoglobin.

By UniProt entry, the sequences of proteins in these tests, tags left out. Residues count along the entry.
UniProt P09803, residues 734-884: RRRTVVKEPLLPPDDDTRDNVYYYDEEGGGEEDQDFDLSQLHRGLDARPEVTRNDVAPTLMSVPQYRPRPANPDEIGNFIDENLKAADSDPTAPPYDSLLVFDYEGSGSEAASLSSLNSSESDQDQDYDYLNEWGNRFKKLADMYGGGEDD
UniProt Q02248: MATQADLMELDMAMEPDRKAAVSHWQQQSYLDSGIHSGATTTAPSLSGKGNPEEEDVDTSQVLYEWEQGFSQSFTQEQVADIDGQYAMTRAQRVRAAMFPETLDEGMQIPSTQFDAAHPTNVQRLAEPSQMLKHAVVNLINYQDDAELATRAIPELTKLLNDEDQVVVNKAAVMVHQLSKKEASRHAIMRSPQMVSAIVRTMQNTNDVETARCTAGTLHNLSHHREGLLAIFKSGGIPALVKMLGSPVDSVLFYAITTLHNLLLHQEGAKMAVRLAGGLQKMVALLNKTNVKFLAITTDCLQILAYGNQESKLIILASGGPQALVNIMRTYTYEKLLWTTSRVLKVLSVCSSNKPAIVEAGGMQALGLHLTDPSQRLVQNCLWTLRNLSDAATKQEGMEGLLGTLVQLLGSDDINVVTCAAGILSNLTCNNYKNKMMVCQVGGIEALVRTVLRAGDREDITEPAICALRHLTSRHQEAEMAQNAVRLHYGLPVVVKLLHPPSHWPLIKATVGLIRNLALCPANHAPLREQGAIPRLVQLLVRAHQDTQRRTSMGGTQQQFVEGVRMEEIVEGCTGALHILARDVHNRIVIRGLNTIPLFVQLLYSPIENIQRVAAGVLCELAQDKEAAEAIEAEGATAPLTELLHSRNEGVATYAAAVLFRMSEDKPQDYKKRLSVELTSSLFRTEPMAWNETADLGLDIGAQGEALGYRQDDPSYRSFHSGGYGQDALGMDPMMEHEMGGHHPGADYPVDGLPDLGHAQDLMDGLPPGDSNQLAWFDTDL

No constants are given. Whether binding was seen depends on the method and setting. In cells and extracts the contact can be indirect. Some binding calls cover weakened binding; strength is not graded here.

Regarding β-catenin (from UniProt Q02248 1-781), the binding result was “binds”.

The values are drawn from paper PMC4728358.
